The target of assay [1] is T1, P120 catenin isoform p120-1 (mouse (endogenous in 4T1)) (UniProt P30999).
T1 sequence: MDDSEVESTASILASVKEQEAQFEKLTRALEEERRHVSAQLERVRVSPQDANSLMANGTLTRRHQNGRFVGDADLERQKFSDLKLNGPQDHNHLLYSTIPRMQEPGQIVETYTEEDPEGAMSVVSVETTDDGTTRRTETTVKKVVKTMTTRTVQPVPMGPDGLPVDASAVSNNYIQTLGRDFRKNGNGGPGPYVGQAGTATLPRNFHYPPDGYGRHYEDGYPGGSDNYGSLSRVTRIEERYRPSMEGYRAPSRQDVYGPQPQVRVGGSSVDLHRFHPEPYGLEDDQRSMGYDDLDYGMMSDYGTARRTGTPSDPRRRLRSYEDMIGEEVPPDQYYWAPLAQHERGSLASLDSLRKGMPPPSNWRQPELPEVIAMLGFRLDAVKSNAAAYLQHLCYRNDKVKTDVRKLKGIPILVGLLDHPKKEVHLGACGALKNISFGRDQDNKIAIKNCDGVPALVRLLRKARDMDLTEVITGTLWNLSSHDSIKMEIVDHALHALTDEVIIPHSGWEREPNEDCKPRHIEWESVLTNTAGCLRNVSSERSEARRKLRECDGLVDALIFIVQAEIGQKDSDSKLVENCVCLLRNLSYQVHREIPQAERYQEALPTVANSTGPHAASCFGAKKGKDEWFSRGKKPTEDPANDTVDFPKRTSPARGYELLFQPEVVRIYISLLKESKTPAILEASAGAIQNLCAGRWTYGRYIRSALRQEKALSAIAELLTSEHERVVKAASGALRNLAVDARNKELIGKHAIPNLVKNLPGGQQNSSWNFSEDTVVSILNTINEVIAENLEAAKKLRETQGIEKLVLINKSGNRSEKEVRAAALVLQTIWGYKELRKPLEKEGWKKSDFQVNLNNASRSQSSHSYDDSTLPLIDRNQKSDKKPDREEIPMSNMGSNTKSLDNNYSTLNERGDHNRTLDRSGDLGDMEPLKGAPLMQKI
In words: co-IP; confluent 4T1 (Figure 2B) and NMuMG (Figure S2C) cells lysed in 125 mM NaCl, 20 mM Hepes pH 7.4, 1% Nonidet P40 substitute; precipitated with p120 isoform-specific antibodies (6H11 mAb for p120-1, anti-p120-3 pAb) and Sepharose-Protein G at 4 °C; Western blot. For orientation: A western blot detects proteins with antibodies after separation by electrophoresis.

The target of assay [2] is E-cadherin (mouse (endogenous in 4T1)). In words: co-IP; reciprocal: lysate precipitated with an antibody against E-cadherin, p120 isoforms detected by Western blot (Figure S2D,E); cell line not given.

Among the data in paper PMC6826419 are binding values, retold here.

Results are given in words; binding and its absence hold for the method and conditions named. In cells and extracts the contact can be indirect. Binding calls can cover weak binding; strength is not graded here.

In the case of E-cadherin (mouse (endogenous in 4T1)), in assay [1], the binding result is on record as “binds”.

B1: P120 catenin isoform p120-1 (protein, UniProt P30999 1-938)
chain: T1 sequence
Turning to B1, the binding entry in assay [2] is reported as “binds”.
